# PubChem BioAssay AID504764 – Drosophila RNAi Screening Center, 2011
# Test: 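Knock-downs that raise or lower a Notch target reporter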 (primary screen)
# Cells: Drosophila Kc167 cells
# Knock-down reagent: long dsRNA against Drosophila genes
# Timing: about 5 days (4 days dsRNA, then 24 h after transfection)
# Challenge: transfection of constitutively active membrane-tethered Notch lacking the extracellular domain, read 24 h later
# Measured: 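Light from a Notch-responsive E(spl)m3 luciferase reporter under active Notch, with control-promoter and no-Notch reporter wells to normalise; raw counts from paired wells a and b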
# Scale: induced reporter light, run 1, well a and induced reporter light, run 1, well b: higher = more light from the Notch target reporter with active Notch; control promoter light, run 1, well a and control promoter light, run 1, well b: higher = more light from the viral control promoter (cell number, transfection, viability); uninduced reporter light, run 1, well a: higher = more light from the Notch target reporter without active Notch
# Call rule: 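Wells with low control signal or poorly matching duplicates excluded; duplicates averaged; per source plate, z beyond ±2 for induced/control log2 ratio or beyond ±1.8 for induced/uninduced marks a hit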
# Meaning of the calls: active = modifier hit (raised or lowered Notch signal); inactive = not a hit
# The screen tested about 22,000 reagents; shown is a random part of those with a known target gene and a result. In the full data, 403 (1.9%) got an active call. 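Unnormalised raw counts per well; ratio z-scores behind the hit calls and whether each hit raises or lowers signal are not deposited.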 A number with no mark means an inactive call. Reagents against one gene are numbered here. Not stated in the record: the amount of reagent.
target gene,dsRNA no.,"induced reporter light, run 1, well a","induced reporter light, run 1, well b","control promoter light, run 1, well a","control promoter light, run 1, well b","uninduced reporter light, run 1, well a"
mdy,1,70835,60020,77220,55790,5300
mdy,2,2.26e5 (active),2.16e5,1.77e5,1.49e5,13950
CG12209,1,2.07e5,2.28e5,2.86e5,2.96e5,22570
y,1,1.25e5,1.30e5,1.93e5,2.71e5,10400
CG17681,1,1.29e5,1.31e5,1.35e5,1.53e5,11020
Ssb-c31a,1,1.48e5,1.48e5,91790,1.06e5,20260
GstO2,1,1.15e5,1.19e5,84020,31010,8125
Nf-YA,1,21375,24940,25635,19650,3160
Cpr49Af,1,83430,92150,1.31e5,1.31e5,8970
Taf11,1,1.24e5,1.23e5,52340,62640,16740
e,1,1.82e5,1.90e5,2.44e5,2.71e5,16610
Rsbp15,1,79380,74225,1.07e5,61805,2592
CG9313,1,1.12e5,1.22e5,85070,87955,8495
drm,1,2.26e5,2.00e5,2.44e5,2.10e5,10585
Prp4k,1,86760,80320,1.12e5,1.11e5,6455
CG16799,1,1.01e5,1.05e5,1.72e5,2.13e5,7615
Osi14,1,98780,1.38e5,1.83e5,1.32e5,7505
Sdhaf3,1,2.07e5,2.34e5,2.44e5,2.02e5,17780
CG4927,1,65465,78470,78525,84120,6885
CG4704,1,2.11e5,2.08e5,2.39e5,2.06e5,17185
CG13054,1,1.96e5 (active),1.56e5,3.25e5,2.58e5,8550
Coprox,1,1.33e5 (active),1.35e5,2.04e5,2.24e5,12565
CG3337,1,1.70e5,1.73e5,3.27e5,3.23e5,10115
CG14118,1,1.52e5,1.11e5,1.87e5,1.49e5,7388
CG10019,1,22265,22478,14765,12390,2850
ase,1,1.37e5,1.49e5,2.15e5,2.57e5,10035
RpS25,1,91265,1.25e5,83450,65440,4950
CG7544,1,2.16e5,2.13e5,3.33e5,3.22e5,14780
CG3123,1,1.23e5,1.28e5,1.24e5,1.06e5,10695
Alp13,1,72790,85800,70425,67195,4820
CG7943,1,1.54e5,1.61e5,2.14e5,2.29e5,11725
Prtl99C,1,1.08e5,1.14e5,1.72e5,1.60e5,9015
CG6304,1,2.08e5,2.29e5,2.21e5,1.77e5,15940
CG30034 (retired record),1,2.73e5,2.85e5,3.25e5,4.08e5,25435
Vajk1,1,1.81e5,1.76e5,1.65e5,1.65e5,13805
CG10311,1,1.90e5,1.98e5,1.76e5,1.82e5,15175
Vps16B,1,1.16e5,1.26e5,1.75e5,1.53e5,11340
Rrp1,1,3.00e5,2.23e5,3.46e5,2.69e5,16190
rin,1,56770,40390,37115,39035,7650
Targ1,1,1.15e5,1.10e5,1.37e5,1.21e5,6555
CG1662,1,1.96e5,1.61e5,1.91e5,2.06e5,11915
glo,1,73185,67160,88235,65140,7438
CG32606 (retired record),1,5105,3732,5450,8875,2800
CG32606 (retired record),2,98890,52780,79265,69080,11238
CG32606 (retired record),3,79300,52530,69985,64865,12525
CG32606 (retired record),4,81650,58470,74250,89410,10895
sev,1,1.34e5,1.20e5,3.18e5,2.70e5,9395
CG31538,1,1.66e5,1.22e5,1.96e5,1.44e5,12380
not,1,1.04e5,89265,59435,63445,8570
Cad99C,1,1.78e5,1.32e5,2.60e5,2.18e5,13510
Cad99C,2,1.62e5,2.00e5,2.14e5,2.24e5,13555

Not a retest: entries from further up.
target gene,dsRNA no.,"induced reporter light, run 1, well a","induced reporter light, run 1, well b","control promoter light, run 1, well a","control promoter light, run 1, well b","uninduced reporter light, run 1, well a"
CG9313,1,1.12e5,1.22e5,85070,87955,8495
drm,1,2.26e5,2.00e5,2.44e5,2.10e5,10585
Prp4k,1,86760,80320,1.12e5,1.11e5,6455
CG16799,1,1.01e5,1.05e5,1.72e5,2.13e5,7615
Osi14,1,98780,1.38e5,1.83e5,1.32e5,7505
Sdhaf3,1,2.07e5,2.34e5,2.44e5,2.02e5,17780
CG4927,1,65465,78470,78525,84120,6885
